Results deposited as PubChem BioAssay AID652259 (Drosophila RNAi Screening Center, 2013).

Purpose: 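Identify new Wingless signalling regulators in fly cells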 (primary screen)
Cells: Drosophila clone 8 imaginal disc epithelial cells
Reagents: long dsRNA against Drosophila genes
Treatment: pathway stimulated by co-transfected Wingless expression plasmid
Measured: 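Firefly luciferase from a tcf-site Wingless reporter, measured alongside co-transfected Renilla luciferase that tracks transfection; pathway stimulated by a Wingless plasmid; the firefly-to-Renilla ratio is not deposited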
Direction: firefly reporter light: higher = more Wg reporter light, before normalisation; Renilla control light: higher = more transfected or surviving cells
Rule for the call: 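Strong candidates differ from their plate mean by at least two out of four per-plate statistical tests; weak candidates meet just one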
Calls: active = candidate regulator (raises or lowers reporter); inactive = not a candidate
The screen tested about 22,000 reagents; this is a random part of those that have a named target and a result. In the full data, 233 (1.1%) are marked active. 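Light values are raw, unnormalised plate reads; the ratio scores behind the reporter calls were not deposited.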 Not given: the amount of reagent, the time to read-out, the dose of the treatment.

| gene | dsRNA | reporter change call, replicate 1 | firefly reporter light, replicate 1 | firefly reporter light, replicate 2 | Renilla control light, replicate 1 | Renilla control light, replicate 2 | Call |
| --- | --- | --- | --- | --- | --- | --- | --- |
| CG4009 | DRSC15536 | – | 9625 | – | 1997 | – | inactive |
| CG32246 | DRSC08115 | – | 1434 | – | 736 | – | inactive |
| CG2772 | DRSC00530 | – | 2304 | 6032 | 848 | 2352 | inactive |
| l(3)87Df | DRSC16982 | – | 17076 | – | 4279 | – | inactive |
| btl | DRSC11331 | – | 5929 | – | 2486 | – | inactive |
| Tsen2 | DRSC01557 | – | 21107 | – | 9016 | – | inactive |
| Reg-5 | DRSC04647 | – | 12218 | – | 2845 | – | inactive |
| CG9312 | DRSC16471 | – | 8017 | – | 3424 | – | inactive |
| ATPsynC | DRSC15236 | – | 3233 | 5136 | 737 | 2040 | inactive |
| Cap-G | DRSC06652 | Wg reporter activity raised | 9194 | – | 2248 | – | inactive |
| Cap-G | DRSC06653 | – | 4471 | – | 1557 | – | inactive |
| Cap-G | DRSC21805 | – | 5.29e5 | 4.60e5 | 2.37e5 | 1.34e5 | inactive |
| swaPsi | DRSC21685 | – | 6.38e5 | 5.98e5 | 3.42e5 | 2.43e5 | inactive |
| CG16953 | DRSC15167 | – | 2375 | 7076 | 949 | 2103 | inactive |
| CG15286 | DRSC01907 | – | 3510 | 11168 | 1077 | 2962 | inactive |
| CG5953 | DRSC01546 | – | 18520 | – | 7728 | – | inactive |
| CG5953 | DRSC02914 | Wg reporter activity raised | 4516 | 10685 | 496 | 1372 | active |
| CG15747 | DRSC19713 | – | 2203 | 5114 | 644 | 1420 | inactive |
| CG14491 | DRSC06462 | Wg reporter activity raised | 6626 | – | 2864 | – | inactive |
| CG14421 | DRSC17918 | – | 26032 | – | 15765 | – | inactive |
| CG32301 | DRSC08613 | – | 6137 | – | 2653 | – | inactive |
| CG6324 | DRSC19985 | – | 15148 | – | 7090 | – | inactive |
| Polr2B | DRSC16831 | – | 8013 | – | 1542 | – | inactive |
| Dlish | DRSC06016 | – | 10098 | – | 3491 | – | inactive |
| CG14195 | DRSC19550 | – | 19078 | – | 10439 | – | inactive |
| bur | DRSC03163 | – | 8256 | – | 2570 | – | inactive |
| Mtap | DRSC06890 | – | 17091 | – | 6364 | – | inactive |
| CG1416 | DRSC03706 | – | 10716 | – | 3773 | – | inactive |
| Spf30 | DRSC11976 | – | 11994 | – | 4439 | – | inactive |
| beat-IIIb | DRSC02435 | – | 2674 | 7405 | 1026 | 4373 | inactive |
| CG2767 | DRSC15451 | – | 5595 | – | 2332 | – | inactive |
| Mtmr6 | DRSC04046 | – | 2887 | 6579 | 713 | 2375 | inactive |
| Brr2 | DRSC10559 | – | 4247 | – | 1065 | – | inactive |
| CG9300 | DRSC11064 | – | 6698 | – | 3408 | – | inactive |
| CG13920 | DRSC08389 | – | 17552 | – | 5056 | – | inactive |
| CG10936 | DRSC05669 | – | 23002 | – | 14506 | – | inactive |
| CG10936 | DRSC05670 | – | 20114 | – | 11011 | – | inactive |
| CG10936 | DRSC06018 | – | 4470 | – | 2050 | – | inactive |
| Adf1 | DRSC04941 | – | 19148 | – | 9835 | – | inactive |
| Adf1 | DRSC04963 | – | 9621 | – | 2424 | – | inactive |
| CG1542 | DRSC15035 | – | 1895 | 5532 | 586 | 1776 | inactive |
| CG31869 | DRSC02582 | – | 2020 | 4688 | 871 | 2837 | inactive |
| CG31869 | DRSC02674 | – | 3824 | 7693 | 1458 | 3506 | inactive |
| Phae2 | DRSC02555 | – | 3013 | 6579 | 1224 | 2923 | inactive |

A run of entries from the list above:
| gene | dsRNA | reporter change call, replicate 1 | firefly reporter light, replicate 1 | firefly reporter light, replicate 2 | Renilla control light, replicate 1 | Renilla control light, replicate 2 | Call |
| --- | --- | --- | --- | --- | --- | --- | --- |
| CG32301 | DRSC08613 | – | 6137 | – | 2653 | – | inactive |
| CG6324 | DRSC19985 | – | 15148 | – | 7090 | – | inactive |
| Polr2B | DRSC16831 | – | 8013 | – | 1542 | – | inactive |
| Dlish | DRSC06016 | – | 10098 | – | 3491 | – | inactive |
| CG14195 | DRSC19550 | – | 19078 | – | 10439 | – | inactive |
| bur | DRSC03163 | – | 8256 | – | 2570 | – | inactive |
| Mtap | DRSC06890 | – | 17091 | – | 6364 | – | inactive |
| CG1416 | DRSC03706 | – | 10716 | – | 3773 | – | inactive |
| Spf30 | DRSC11976 | – | 11994 | – | 4439 | – | inactive |
| beat-IIIb | DRSC02435 | – | 2674 | 7405 | 1026 | 4373 | inactive |

More entries:
| gene | dsRNA | reporter change call, replicate 1 | firefly reporter light, replicate 1 | firefly reporter light, replicate 2 | Renilla control light, replicate 1 | Renilla control light, replicate 2 | Call |
| --- | --- | --- | --- | --- | --- | --- | --- |
| Anp | DRSC14112 | – | 7977 | – | 3084 | – | inactive |
| CG10912 | DRSC06009 | – | 17600 | – | 4844 | – | inactive |
| ppan | DRSC17030 | – | 17043 | – | 4876 | – | inactive |
| CG4318 | DRSC19887 | – | 19904 | – | 10211 | – | inactive |
| GABA-B-R3 | DRSC00561 | – | 2760 | 6426 | 868 | 2291 | inactive |
| sprt | DRSC07323 | – | 14437 | – | 3834 | – | inactive |
| CG1172 | DRSC12182 | – | 20089 | – | 7059 | – | inactive |
| CG1172 | DRSC21954 | – | 7.68e5 | 7.71e5 | 3.27e5 | 3.19e5 | inactive |
| Atg3 | DRSC10736 | – | 7744 | – | 3978 | – | inactive |
| Atg3 | DRSC21758 | – | 5.99e5 | 7.06e5 | 3.89e5 | 2.97e5 | inactive |
| shg | DRSC04714 | – | 11025 | – | 2720 | – | inactive |
| Octbeta1R | DRSC16134 | – | 43827 | – | 8908 | – | inactive |
| NiPp1 | DRSC07307 | – | 13904 | – | 5400 | – | inactive |
| Nf-YA | DRSC10385 | Wg reporter activity raised | 7094 | – | 884 | – | active |
| Pfdn6 | DRSC10915 | – | 15617 | – | 5653 | – | inactive |
| Nep4 | DRSC15539 | – | 3394 | 4832 | 1216 | 1432 | inactive |
| CG11668 | DRSC14341 | – | 18407 | – | 4531 | – | inactive |
| TwdlQ | DRSC14745 | – | 6785 | – | 1328 | – | inactive |
| Cpr23B | DRSC00555 | – | 3504 | 7732 | 1144 | 3016 | inactive |
| CG11247 | DRSC11643 | – | 7297 | – | 3832 | – | inactive |
| CG11247 | DRSC21901 | – | 3.63e5 | 4.51e5 | 1.57e5 | 1.79e5 | inactive |
| CG5608 | DRSC15841 | – | 7601 | – | 3232 | – | inactive |
| NdufV3 | DRSC19423 | – | 19637 | – | 9458 | – | inactive |
| CG34025 | DRSC08014 | – | 2872 | – | 1393 | – | inactive |
| babo | DRSC07581 | – | 2602 | 3905 | 962 | 1994 | inactive |
| CG3119 | DRSC00569 | – | 2531 | 6608 | 1027 | 2347 | inactive |
| CG9628 | DRSC11082 | – | 7669 | – | 2764 | – | inactive |
| CG32263 | DRSC22431 | – | 7.99e5 | 8.93e5 | 4.69e5 | 1.80e5 | inactive |
| sick | DRSC02090 | – | 3504 | 6698 | 578 | 2512 | inactive |
| sick | DRSC02300 | – | 2903 | 5509 | 597 | 2585 | inactive |
| sick | DRSC02301 | – | 3153 | 5360 | 499 | 2841 | inactive |
| sick | DRSC02302 | – | 2121 | 10249 | 411 | 3440 | inactive |
| sick | DRSC02303 | – | 2512 | 3987 | 393 | 2439 | inactive |
| sick | DRSC02306 | – | 2461 | 7772 | 425 | 4042 | inactive |
